The values that follow come from paper PMC3844623.

No constants are given. Whether binding was seen depends on the method and setting. Binding seen in cells or lysates may run through a third protein. Binding calls can cover weak binding; strength is not graded here.

This assay deals with T1, neutral sphingomyelinase 2 (rat (endogenous in hippocampus)) (UniProt O35049).
T1 sequence: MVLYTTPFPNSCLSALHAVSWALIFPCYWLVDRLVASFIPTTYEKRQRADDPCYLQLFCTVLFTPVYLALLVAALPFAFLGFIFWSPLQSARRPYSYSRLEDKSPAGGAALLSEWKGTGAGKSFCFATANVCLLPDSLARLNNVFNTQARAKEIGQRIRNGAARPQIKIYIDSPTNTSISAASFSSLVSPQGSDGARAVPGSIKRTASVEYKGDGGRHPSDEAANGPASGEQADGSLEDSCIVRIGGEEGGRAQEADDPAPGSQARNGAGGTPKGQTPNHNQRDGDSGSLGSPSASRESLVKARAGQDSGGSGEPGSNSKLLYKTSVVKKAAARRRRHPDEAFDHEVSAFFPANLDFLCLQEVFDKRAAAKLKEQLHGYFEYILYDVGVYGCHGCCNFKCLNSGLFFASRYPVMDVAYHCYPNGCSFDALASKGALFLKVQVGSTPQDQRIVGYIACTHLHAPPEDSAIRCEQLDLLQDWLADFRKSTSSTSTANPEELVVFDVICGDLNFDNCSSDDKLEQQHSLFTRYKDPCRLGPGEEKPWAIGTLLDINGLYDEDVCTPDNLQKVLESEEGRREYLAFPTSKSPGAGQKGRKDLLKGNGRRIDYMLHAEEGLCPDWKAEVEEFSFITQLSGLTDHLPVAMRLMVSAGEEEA
The experiment in a line: co-IP; rat hippocampus lysates (50 mM Tris-HCl, 150 mM NaCl, 1% Triton X-100, 1 mM EDTA, pH 7.4) incubated with nSMase2 antibody overnight at 4°C, protein A agarose; immunoblot for RACK1 and EED; sham or 10 min ischemia with 0.5, 1, 6 or 24 h of reperfusion; with R-7050 (TNF-α receptor inhibitor, 10 μM) or solvent injected into the lateral ventricle. On the technique in general: In western blotting, separated proteins are transferred to a membrane and probed.

For the substance “embryonic ectoderm development (rat (endogenous in hippocampus))”, the binding entry is “binds”.
